Laboratory results reported in patent US20090068643.

Legend:
[1] = system: Tli I restriction endonuclease; assay: enzyme reaction in vitro; details: fluorescein-dT, purified recombinant protein, label: 5' anthraquinone quencher, fluorescein-dT
[2] = system: PspG1 (PspGI) restriction endonuclease; assay: enzyme reaction in vitro; details: 3' ddC, FAM-dT [20 (FAM-dT), 41 (3' ddC)], purified recombinant protein, label: 5' Iowa Black azo quencher, FAM-dT, letters built from the parent sequence and the stated change
[3] = no cleavage, site too close to quencher/fluorophore

CCGTTCTCGAGGTCGCTCGCCTATCCGCTTC (double strand) [SEQ 20 duplex]
activity on this sequence ([1]; cleaved): active

CCGTTCTCGAGTTCGCTCGCCTATCCGCTTC (double strand) [primer/probe SEQ 4 amplicon]
activity on this sequence ([1]; internal fluorescein-dT between TT and CGCTCG (absent from listing), PCR product cleaved with Tli I added before PCR or after PCR (30 min 75 C), 3 mM MgCl2, 50 mM KCl): active

TTTTTTTCCTGGTTTTTTTTTTCGGCTTCCTCCACGTCATC (double strand) [FQT-LNA template probe, extended duplex]
activity on this sequence ([2]; LNA-C at marked C positions of 3' binding domain, 23,26,29,30,32,33,35,38 (LNA-C), indirect: real-time PCR signal about 3 cycles earlier with PspG1, 10 mM MgCl2): active

CCGTTCTCGAGGTTTCGCTCGCCTATCCGCTTC (double strand) [SEQ 21 duplex]
activity on this sequence ([1]; cleaved): active

TTTTTTTCCTGGTTTTTTTTTTCGGCTTCCTCCACGTCATC (double strand) [FQT-5mC template probe, extended duplex]
activity on this sequence ([2]; 5-methyl-dC at marked C positions of 3' binding domain, 23,26,29,30,32,33,35,38 (5-methyl-dC), indirect: slightly stronger real-time PCR signal with PspG1): active

CCGTTCTCGAGGTTTTTCGCTCGCCTATCCGCTTC (double strand) [SEQ 22 duplex]
activity on this sequence ([1]; cleaved): active

CCGTTCTCGAGGTTTTTTTCGCTCGCCTATCCGCTTC (double strand) [SEQ 23 duplex]
activity on this sequence ([1]; cleaved): active

CCGTTCTCGAGCGCTCGCCTATCCGCTTC (double strand) [SEQ 19 duplex]
activity on this sequence ([1]; cleaved, 12-base separation): active

TTCTCGAGCGCTCGCCTATCCGCTTC (double strand) [SEQ 18 duplex]
activity on this sequence [1, 3]: not active

TCTCGAGCGCTCGCCTATCCGCTTC (double strand) [SEQ 17 duplex]
activity on this sequence [1, 3]: not active

For at least one entry, the source does not settle the construct or the ends of the probe. For some of these results: A negative result means that nothing was seen under these conditions.
